Test results taken from PMC8510580, “HspB8 prevents aberrant phase transitions of FUS by chaperoning its folded RNA-binding domain” (eLife, 2021).
No constants are given. Whether binding was seen depends on the method and setting.

Amino acid sequences for entries named in this document (tags omitted). A change or cut given only in a name is not applied to a line headed by its entry.
UniProt P35637: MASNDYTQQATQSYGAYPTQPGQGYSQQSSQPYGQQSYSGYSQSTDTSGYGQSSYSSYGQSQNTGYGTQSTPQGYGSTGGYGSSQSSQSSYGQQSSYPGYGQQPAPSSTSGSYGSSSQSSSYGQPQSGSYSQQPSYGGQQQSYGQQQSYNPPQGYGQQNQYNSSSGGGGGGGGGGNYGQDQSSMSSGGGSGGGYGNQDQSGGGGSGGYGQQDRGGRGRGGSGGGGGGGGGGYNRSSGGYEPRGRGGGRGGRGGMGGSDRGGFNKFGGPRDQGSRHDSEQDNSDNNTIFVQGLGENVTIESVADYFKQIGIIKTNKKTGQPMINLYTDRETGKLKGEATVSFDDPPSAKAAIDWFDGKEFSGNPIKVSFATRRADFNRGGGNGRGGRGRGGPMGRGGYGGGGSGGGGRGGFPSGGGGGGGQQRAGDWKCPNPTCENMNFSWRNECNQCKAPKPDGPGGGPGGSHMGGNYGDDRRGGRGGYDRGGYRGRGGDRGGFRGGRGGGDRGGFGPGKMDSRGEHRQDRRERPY

What was measured:
[1] = biological target: FUS-G156E-GFP (FUSm) (human) (UniProt P35637); test: condition: only non-phase separating conditions (500 mM KCl); up to 120 µM HspB8; MST; 33 nM FUSm, partner titrated; non-phase separating conditions (500 mM KCl); both purified
[2] = biological target: FUS-G156E-GFP (FUSm) (human) (UniProt P35637); test: cross-linking; XL-MS of FUSm (or FUSm_K9) mixed with HspB8 outside condensates: dilute phase after centrifugation or high salt (500 mM); H12/D12 DSS, 30 min, 37°C; both purified
[3] = biological target: FUS-G156E-GFP (FUSm) (human) (UniProt P35637); test: cross-linking; XL-MS of FUSm (or FUSm_K9) mixed with the partner under condensate-inducing low salt (75 mM): low-salt mixture or dense phase separated by centrifugation; H12/D12 DSS, 30 min, 37°C; also 3 hr after formation and with an RNA oligonucleotide; both purified

Binder | binding [1] | binding [2] | binding [3]
HspB8-WT (natural protein, UniProt Q9UJY1 1-196, looked up, small heat shock protein HspB8; IDR printed as AA1-71 and alpha-crystallin domain as AA72-196; The article's keywords name Human as organism; also called small heat shock protein HspB8; source: E. coli BL21 Codon RIL, purified (GST, PreScission cleavage, reverse GST, ResourceQ); not shown: GST, N-terminal, cleaved) MADGQMPFSCHYPSRLRRDPFRDSPLSSRLLDDGFGMDPFPDDLTASWPDWALPRLSSAWPGTLRSGMVPRGPTATARFGVPAEGRTPPPFPGEPWKVCVNVHSFKPEELMVKTKDGYVEVSGKHEEKQQEGGIVSKNFTKKIQLPAEVDPVTVFASLSPEGLLIIEAPQVPPYSTFGESSFNNELPQDSQEVTCT | no binding | no binding (condition: outside condensates (dilute phase)) | –
lactalbumin (protein, UniProt P00711 20-142) EQLTKCEVFRELKDLKGYGGVSLPEWVCTTFHTSGYDTQAIVQNNDSTEYGLFQINNKIWCKDDQNPHSSNICNISCDKFLDDDLTDDIMCVKKILDKVGINYWLAHKALCSEKLDQWLCEKL | – | – | no binding
